The whole screen tested about 53,000 sequences, of which about 3,700 (7%) were called active.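 The calls were made as follows: active = gene knockdowns whose robust z-score for IL-1 alpha signal is at least 2 or at most -2, so actives lie on both sides; inactive = the rest.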 This is one part of the list.
experiment: Components of the Cytosolic LPS Sensing Pathway: Gene Identification via Genome-wide siRNA Screen; conditions: RAW264.7 macrophages, IL-1a HTRF, actives lie on both sides, screened at 100 nM (by protocol), cells primed 5 h with Pam3CSK4 first;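 also: robust z of the log signal after scaling to non-targeting control siRNA wells of the plate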
Summary of the method: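 Read-out: IL-1a HTRF on supernatant, divided by plate negative-control median ×100, log-transformed and converted to robust z-score. Cells were RAW264.7 given 100 nM siRNA, Pam3CSK4-primed 5 hours, then LipidA-transfected 24 hour.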

z-score, active:
GAGUGAUGCGCAUUUCGAGTT against Sf3b5 -2.53, GGUUAUUAAGGAUAAACUGTT against Cops5 2.28, GGCUGAAGUUACUUUGGAUTT against Nup98 -2.03, GGCUAGCAUUAGCCACAGATT against Enpp3 -2.33, GCAUCCUUCACUCAAAUAUTT against Aspa 3.17, GGCUGUAAUGAGGACUGAUTT against Ss18l2 3.25, GGGUGUAUUACCUCUCUCUTT against Pygl 2.12, GCUAGCCAGUGCAUUCACATT against Srp68 -2.96

z-score, inactive:
GGGUUCUGCUAUGUUAAUGTT against Hdac2 0.221, CCUACAGGAUCAUAGUUAATT against Nicn1 -1.04, GGCCAAAUUUGGGUUUGGATT against Dpy19l3 -0.367, GGAGAUAUUCCAGAUCUUUTT against Picalm 0.305, GGAUUUGAUGCUAAAUGAATT against Pcdhb13 -0.635, CCACUGAUGCUUCCUACUUTT against Flvcr2 -0.895, GGACUCUUGGAACUAUUCUTT against Kcnu1 -0.833, GGAAAGAAACAGAAGCACATT against Il21 -0.511, CCGAGUACCAAGAUUCUGATT against Doxl1 0.295, CGGAGCUGUCUGAUUGUCGTT against Lrrc8b -1.61, CGAUGUGGAAAGUCGGUAUTT against Csrp3 0.386, GGGACCAUUCUGAAGAUGATT against Acot7 -1.76, GGAAGAGGAGACCACUGAUTT against Zfp428 -0.446, GGAUUCAUGAAAUAAGUCATT against Zfp426 -0.603, CGGUGAUCAAAGAUAAGAATT against Zkscan5 -0.936, GGUUAUUCAUGAUGUUUGCTT against Fbn1 -0.529, GCCAUUUUGUCAAUUCACCTT against Txndc12 -1.24, GGUACCUGACAAUGAUGAGTT against Etv1 -1.31, GGUGCUAUCUGAGAGGUACTT against Triobp -0.201, GGGAAAGAUAAAUGUUUCCTT against Gucy1b1 1.89, GCCAACGAACUUUUUCGUATT against Zfp36l2 0.208, CGCACAUGCCACUUCCACATT against Oxsm 0.189, GGGUAUAUCAGGGCCAAGUTT against Col4a5 0.51, GGUUCCUCACAAGCAUUCUTT against Olfr818 0.276, GGAAGUCCUAUGAUUAAACTT against Zfand1 -0.633, GGCACUGAAACUGCUCCUGTT against Taar5 -1.4, CCUCAACCGGCAGUUCUUGTT against Uba2 -0.574, GGUUACCCAACUUGAAGGATT against Parp16 1.37, GGAGAGAGGAUAAGUCACATT against Jsrp1 -1.44, GGAGUGGUUUGAGGACAGCTT against Ppfibp2 0.423, GCUAUUGCUCGCAUCAAUGTT against Prps1l1 0.989, GGUAUUUGUCUGUAAUUUGTT against Ddx50 0.421, GGGCAGCUUUGAGAAAGCCTT against Rrad -1.38, GGAGGACAAACAGCUUCAATT against Psmd2 -1.43, GCCCACCAAUAUUUUGCUUTT against Stk16 -0.383, GGAACAACUGAGAAGCACCTT against H2bc4 1.02, GGAAUUACUCACAUGCUAATT against Tlr7 0.98, CCUGUCUGUUUGAGGACGUTT against Adora2a -0.701, GGAUUCAAGAAGUAAAUCCTT against Uty -0.901, GGACUAGACUGUGAAAUGATT against Satb2 -0.443, GCUUUACUGAGAUUGAGCGTT against Arfgap2 -1.98, GGAUUAUGCCCUUCAUUGGTT against Rbbp7 -0.572, GGACGAUGGAAUUAUGAGGTT against Ift80 0.368, GGGCAGGACUUUACCUUUATT against Iqcg 1.57, GGAGAUGGCCACCUAUUUGTT against Csnk1g2 -0.325, GCCAACUCAAGCAAUCUGCTT against Tnks 0.378, GCCUUCUUACCUGUUAGACTT against Bud23 -0.163, GUGCUCAGUUCCAAUUCCATT against Neurog3 -0.282, GGCCUAUCUUCUUUACAUATT against Ctbs 0.348, GGAGUAGCCACUGAGGACUTT against Rif1 -0.341, GGCCUAAUUUGAAUAACACTT against 4933436I01Rik -1.45, GCCAUCGCCAGGGAACAAATT against Trim12c -0.721, GGCUCUGAAAGAGCUAAAATT against Lrrc57 1.66, GGAGGAAAUGAAAACCUUUTT against Cep89 -0.823, GGGUCAGAACACGUACGAGTT against Gnaz 1.06, GGCAAAACUCACACUUACUTT against Poldip2 -0.0142, CGCCGUUGGUUUGCCAGAATT against Defb40 0.454, GGGACUGGCACCAUUUGUUTT against Cetn4 -0.289, GGUUAAUGAUAAGAACCCATT against Hgs 0.156, GCCCAACCUGUAUUGGAUCTT against Icosl -0.887, CCUACGACAACUCAGACCUTT against Ecscr -0.152, GCAAACCUCAAUCUUGAAATT against Kif15 0.297, GCAGAAAGAAUGACAUUCCTT against Cfc1 0.71, GCCUACAGAGUCUUAGUUATT against Tmed9 0.53, GCUGCUGUGGCUUUUGUGGTT against Imp3 -1.76, GGAGAGAACUUGUUCAUGATT against 4833432P19Rik -0.697, GCCAGUGGUGCUAGCAGAUTT against Mtnr1a -0.129, GGAUACCUUCCUCUUACACTT against Bloc1s3 1.35, GCUUUUCCUACCGUAAGCCTT against Cmtr2 -0.171, GCAUACUUUCCACAAUGAUTT against Vmn1r50 1.11, GAACUGACUUCACAUAAAGTT against Nrtn -0.616, GCCAUGAAGCUAAAUAAUCTT against Optn -1.31, GGAACUUAUGGACAGUUCATT against Lrtm1 0.642, GGAGAAAAGGAAGUUGAGGTT against Bnip3l -1.76, CCAAAGUAUGCACUUUACATT against Dcaf10 0.668, CGACCAGACACGGAAUGUATT against Mbnl1 0.481, GGGCAUGAAUGGUUACUUATT against Mllt6 1.24, GCCUAUGGAAUGGACAUACTT against Nadsyn1 1.21, GGGAGACAUUUUCAAGAUGTT against Lrrn4 -1.75, GGAUUUUUAUGAUAGUGACTT against Slc4a1ap -0.747, GGUUUAACUGUAGCAUAAGTT against Pde12 -0.0106, GGGAACUACGCACAACGAATT against H2ac1 0.776, CCAAAAAUGAAAUCACUGATT against Krt71 -1.93, GGAUAUGUGAAAUGCAUUGTT against Asb9 0.219, GCUAAAACCCGUUACUUCCTT against Gsta4 0.669, CCUAUCUGGCUUCUGUUAATT against Bin1 -0.438, GGUAAAAGAAGCUCUAAAGTT against Olfr449 0.0924, GCCAUGUGUAUGGUAGUCUTT against Olfr1247 -1.22, GGUCUUCUGGAGUUUGUGGTT against Glrx 1.02, GCAGUUAUCAAUAAUUCCCTT against Nploc4 -0.533, GCAACUAUCUCCUAUAAGGTT against Acss3 -0.844, GGUUGAUGCAUCAUUCCUATT against Adamts1 -0.11, GGCUACCAAGUUUCAUCAUTT against Tbx22 1.37, GGUUUUAGCCACAAGUAUGTT against Utp18 0.67, CCAUCUCCCUACUAGGUUGTT against Olfr49 0.635, GGCCAAUGCCCUUUUUUGATT against Spem2 0.427, GGCUUUAGUUGUCUUUUAUTT against Cxcr1 0.609, GGUAGUAGGAGGAAUGACGTT against Ccdc93 -0.353, CGGAUACCUAGAGUGCAUCTT against Zfp42 0.725
